Test results taken from paper PMC5857711.
These are yes or no findings as the source states them, for the method shown. For some assays here: In cells and extracts the contact can be indirect. Some entries that bind do so weakly or less than the wild type. For some assays here: Tags and fused reporters may be left off the sequences shown. Blank lines part the entries; values can stand above or below the molecule they belong to.

By UniProt entry, the sequences of proteins in these tests, tags left out. Where a name states a change or a piece, a line headed by the entry shows the natural chain unless it says otherwise.
UniProt Q92847: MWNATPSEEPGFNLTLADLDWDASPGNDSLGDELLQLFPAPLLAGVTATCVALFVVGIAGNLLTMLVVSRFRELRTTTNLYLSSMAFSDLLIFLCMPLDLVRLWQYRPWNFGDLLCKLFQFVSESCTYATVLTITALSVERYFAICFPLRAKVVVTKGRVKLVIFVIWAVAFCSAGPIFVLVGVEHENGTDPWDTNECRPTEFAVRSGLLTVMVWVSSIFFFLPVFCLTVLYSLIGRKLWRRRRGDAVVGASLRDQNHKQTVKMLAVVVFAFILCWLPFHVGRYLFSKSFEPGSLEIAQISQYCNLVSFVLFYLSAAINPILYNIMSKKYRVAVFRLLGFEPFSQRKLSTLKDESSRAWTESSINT
UniProt P41968: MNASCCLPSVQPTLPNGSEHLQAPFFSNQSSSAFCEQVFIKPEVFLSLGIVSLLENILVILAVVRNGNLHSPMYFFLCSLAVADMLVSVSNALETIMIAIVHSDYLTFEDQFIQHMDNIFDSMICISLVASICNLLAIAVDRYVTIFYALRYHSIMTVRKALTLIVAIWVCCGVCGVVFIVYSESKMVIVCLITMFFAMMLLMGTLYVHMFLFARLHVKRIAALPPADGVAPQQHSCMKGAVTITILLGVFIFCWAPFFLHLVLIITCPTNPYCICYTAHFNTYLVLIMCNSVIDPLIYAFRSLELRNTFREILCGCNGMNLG
UniProt P14416: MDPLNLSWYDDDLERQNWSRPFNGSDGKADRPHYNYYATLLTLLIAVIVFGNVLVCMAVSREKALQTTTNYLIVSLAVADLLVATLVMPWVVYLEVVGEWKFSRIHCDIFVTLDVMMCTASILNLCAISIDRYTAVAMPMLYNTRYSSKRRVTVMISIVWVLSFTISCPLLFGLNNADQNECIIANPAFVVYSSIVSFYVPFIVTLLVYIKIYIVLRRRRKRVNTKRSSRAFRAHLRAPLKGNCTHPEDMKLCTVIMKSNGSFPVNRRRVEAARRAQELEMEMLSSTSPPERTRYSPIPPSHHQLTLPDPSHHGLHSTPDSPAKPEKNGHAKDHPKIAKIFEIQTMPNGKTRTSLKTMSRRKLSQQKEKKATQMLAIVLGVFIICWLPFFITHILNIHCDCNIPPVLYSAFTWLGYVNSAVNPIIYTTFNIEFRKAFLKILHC
UniProt P28222: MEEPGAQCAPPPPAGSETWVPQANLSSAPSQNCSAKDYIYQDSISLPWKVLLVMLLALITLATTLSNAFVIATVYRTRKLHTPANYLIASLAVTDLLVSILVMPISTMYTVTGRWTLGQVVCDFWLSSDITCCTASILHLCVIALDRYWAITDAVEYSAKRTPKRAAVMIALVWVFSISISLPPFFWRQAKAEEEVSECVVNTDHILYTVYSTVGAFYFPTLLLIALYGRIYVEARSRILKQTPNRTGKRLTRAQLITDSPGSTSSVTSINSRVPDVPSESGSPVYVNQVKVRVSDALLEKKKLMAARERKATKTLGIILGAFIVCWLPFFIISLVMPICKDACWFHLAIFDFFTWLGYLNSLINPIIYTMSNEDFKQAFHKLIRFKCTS

Columns and labels:
[1] = biological target: growth hormone secretagogue receptor (GHSR), NHA- or FLAG-tagged, for sandwich ELISA (human) (UniProt Q92847); assay: ELISA; sandwich ELISA: COS7 cells co-transfected with an NHA-tagged and a C-Flag-tagged receptor (and reversely tagged, data pooled), lysed 48 h after transfection, lysate on an anti-Flag-M2 coated plate, detected with biotin-labeled anti-HA antibody and streptavidin-HRP; fold over mock …
[2] = biological target: Melanocortin-3 receptor (MC3R), CFP- or YFP-tagged, for FRET (UniProt P41968); assay: FRET or BRET; FRET by acceptor photobleaching in HEK293 cells co-transfected with a CFP-tagged and a YFP-tagged receptor (and vice versa), 72 h after transfection; a stable interaction defined by a FRET efficiency between 8 and 25%
[3] = biological target: DRD2 (D2R), NHA- or FLAG-tagged, for sandwich ELISA (UniProt P14416); assay: ELISA; sandwich ELISA: COS7 cells co-transfected with an NHA-tagged and a C-Flag-tagged receptor (and reversely tagged, data pooled), lysed 48 h after transfection, lysate on an anti-Flag-M2 coated plate, detected with biotin-labeled anti-HA antibody and streptavidin-HRP; fold over mock …
[4] = biological target: serotonin receptor 1b (5-HT1b), NHA- or C-Flag-tagged, for sandwich ELISA (human) (UniProt P28222); assay: as above
[5] = biological target: trace amine associated receptor 1 (TAAR1), NHA- or C-Flag-tagged, for sandwich ELISA (human) (UniProt Q96RJ0); assay: as above

binding [1]: binds
Molecule: growth hormone secretagogue receptor (GHSR), NHA- or FLAG-tagged, for sandwich ELISA (from UniProt Q92847 1-366)

binding [2]: binds
Molecule: growth hormone secretagogue receptor (GHSR), CFP- or YFP-tagged, for FRET (from UniProt Q92847 1-366)

binding [3]: binds
binding [4]: binds
binding [5]: binds
B1: trace amine associated receptor 1 (TAAR1), NHA- or C-Flag-tagged, for sandwich ELISA (receptor, UniProt Q96RJ0 1-339)
chain: MMPFCHNIINISCVKNNWSNDVRASLYSLMVLIILTTLVGNLIVIVSISHFKQLHTPTNWLIHSMATVDFLLGCLVMPYSMVRSAEHCWYFGEVFCKIHTSTDIMLSSASIFHLSFISIDRYYAVCDPLRYKAKMNILVICVMIFISWSVPAVFAFGMIFLELNFKGAEEIYYKHVHCRGGCSVFFSKISGVLTFMTSFYIPGSIMLCVYYRIYLIAKEQARLISDANQKLQIGLEMKNGISQSKERKAVKTLGIVMGVFLICWCPFFICTVMDPFLHYIIPPTLNDVLIWFGYLNSTFNPMVYAFFYPWFRKALKMMLFGKIFQKDSSRCKLFLELSS
